Results deposited as PubChem BioAssay AID652243 (Drosophila RNAi Screening Center, 2013)

Test: 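Fly genes required for human androgen receptor driven transcription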 (primary screen)
Cell system: Drosophila S2R+ cells
Reagents: long dsRNA against Drosophila genes
Duration: 72 h (48 h, then 24 h hormone)
Challenge: synthetic androgen R1881 at 10 nM for 24 h
Measurement: 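Firefly light from an androgen-responsive reporter and Renilla control light per well, raw and unnormalised, for each of two replicates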
Reading the numbers: firefly reporter light: higher = more light from androgen-responsive reporter; Renilla control light: higher = more constitutive control signal (cell number, transfection)
Call rule: 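Across duplicate plates, a knock-down whose log firefly/Renilla ratio shifted a set fold down or up from the GFP/LacZ control mean was a hit; the downward cut appears as both 1.5 and 3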
Meaning of the calls: active = hit: reporter lowered or raised; inactive = no hit
In all, the deposit lists about 24,000 reagents; this is a random part of those with a known target gene and a result. Over the whole deposit, 246 (1%) were called active. 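Plates not normalised; calls are printed but the firefly/Renilla ratio behind them is not deposited; fold cut for lowering reported inconsistently.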 Raw values are not corrected between plates. Unmarked entries are inactive. Names joined by + are all predicted targets of the reagent. The record does not give: the amount of reagent.

target	dsRNA	firefly reporter light, replicate 1	firefly reporter light, replicate 2	Renilla control light, replicate 1	Renilla control light, replicate 2
dbf	DRSC02570	1.53e5	1.22e5	1.11e6	1.18e6
dbf	DRSC27207	5.17e5	4.54e5	6.80e5	5.95e5
CG13319	DRSC06356	5.26e5	4.68e5	2.69e6	2.34e6
CG6293	DRSC16011	32564	80889	3.79e5	3.67e5
CG6293	DRSC28774	6.66e5	5.15e5	1.43e6	1.26e6
Pym	DRSC23017	7.19e5	9.06e5	1.38e6	2.02e6
ppk13	DRSC02382	1.39e5	1.50e5	1.49e6	1.62e6
CG14377	DRSC14837	86312	1.65e5	1.72e6	2.00e6
CG14377	DRSC26342	2.89e5	3.50e5	9.13e5	9.80e5
Dr	DRSC17002	7.06e5	8.94e5	1.18e6	1.14e6
Dr	DRSC22708	6.74e5	7.71e5	2.91e5	3.33e5
aru	DRSC00802	1.23e5	1.32e5	1.12e6	1.35e6
aru	DRSC22019	8.86e5	8.54e5	3.97e5	4.81e5
Btnd	DRSC18316	3.26e5	2.63e5	2.21e6	2.46e6
Btnd	DRSC24718	7.41e5	7.01e5	9.24e5	8.34e5
Btnd	DRSC38991	7.46e5	6.77e5	1.46e6	1.51e6
CG31157	DRSC21832	4.58e5	4.77e5	2.41e6	2.77e6
CG31157	DRSC29159	4.24e5	4.73e5	1.44e6	1.07e6
CG13829	DRSC14679	3.32e5	3.68e5	2.12e6	2.05e6
CG18518	DRSC01509	2.35e5	3.03e5	5.72e5	6.10e5
CG4577	DRSC00658	1.59e5	1.42e5	1.19e6	7.84e5
CG30373	DRSC05081	2.65e5	3.06e5	7.68e5	6.06e5
CG30373	DRSC29668	2.76e5	4.51e5	8.58e5	8.58e5
AP-1mu	DRSC14089	56804	74063	3.70e5	5.60e5
AP-1mu	DRSC25744	8.33e5	6.89e5	9.35e5	1.03e6

5 successive entries already listed, for reference:
target	dsRNA	firefly reporter light, replicate 1	firefly reporter light, replicate 2	Renilla control light, replicate 1	Renilla control light, replicate 2
Dr	DRSC22708	6.74e5	7.71e5	2.91e5	3.33e5
aru	DRSC00802	1.23e5	1.32e5	1.12e6	1.35e6
aru	DRSC22019	8.86e5	8.54e5	3.97e5	4.81e5
Btnd	DRSC18316	3.26e5	2.63e5	2.21e6	2.46e6
Btnd	DRSC24718	7.41e5	7.01e5	9.24e5	8.34e5

The results go on.
target	dsRNA	firefly reporter light, replicate 1	firefly reporter light, replicate 2	Renilla control light, replicate 1	Renilla control light, replicate 2
pav	DRSC08730	1.17e5	1.07e5	2.06e6	2.05e6
pav	DRSC25088	5.88e5	3.07e5	5.44e5	5.49e5
nec	DRSC06769	2.01e5	2.62e5	1.88e6	1.85e6
Cpr57A + Obp57d	DRSC06708	1.30e6	1.18e6	1.35e6	1.19e6
Cpr57A + Obp57d	DRSC22719	6.56e5	8.55e5	1.67e6	1.34e6
CG7448 (retired record)	DRSC11828	72875	81325	5.45e5	5.41e5
CG7448 (retired record)	DRSC22485	5.76e5	5.62e5	1.52e6	1.83e6
CG32075	DRSC10622	1.32e5	1.73e5	1.30e6	1.55e6
CG32075	DRSC29881	5.03e5	3.70e5	1.12e6	1.44e6
Aptx	DRSC15768	2.55e5	2.18e5	3.53e6	3.77e6
Aptx	DRSC28121	4.24e5	2.22e5	1.11e6	8.96e5
Ugt37C1	DRSC07416	63632	98822	8.87e5	8.87e5
Ugt37C1	DRSC24066	6.07e5	4.35e5	1.94e6	6.38e5
mthl10	DRSC08504	1.35e5	1.48e5	1.15e6	1.05e6
mthl10	DRSC08505	99027	1.54e5	2.32e6	2.02e6
mthl10	DRSC39158	8.56e5	7.98e5	1.33e6	1.42e6
